The source of these data is publication PMC5749900.

Protein sequences, listed by entry. Tags and fused reporters are not part of them. Residues count along the entry.
HCV E2 glycoprotein (JFH1) (Q99IB8, residues 384-750): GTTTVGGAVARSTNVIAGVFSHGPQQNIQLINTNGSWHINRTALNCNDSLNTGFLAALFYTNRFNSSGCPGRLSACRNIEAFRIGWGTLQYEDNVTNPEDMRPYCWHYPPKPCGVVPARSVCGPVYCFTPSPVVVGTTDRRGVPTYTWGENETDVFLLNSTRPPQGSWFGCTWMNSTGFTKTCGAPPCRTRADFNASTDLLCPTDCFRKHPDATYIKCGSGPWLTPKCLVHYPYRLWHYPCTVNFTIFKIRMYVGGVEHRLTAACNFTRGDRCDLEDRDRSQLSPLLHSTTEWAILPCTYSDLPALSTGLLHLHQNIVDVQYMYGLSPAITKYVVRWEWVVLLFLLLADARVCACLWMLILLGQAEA
HCV NS2 protein (JFH1) (Q99IB8, residues 814-1030): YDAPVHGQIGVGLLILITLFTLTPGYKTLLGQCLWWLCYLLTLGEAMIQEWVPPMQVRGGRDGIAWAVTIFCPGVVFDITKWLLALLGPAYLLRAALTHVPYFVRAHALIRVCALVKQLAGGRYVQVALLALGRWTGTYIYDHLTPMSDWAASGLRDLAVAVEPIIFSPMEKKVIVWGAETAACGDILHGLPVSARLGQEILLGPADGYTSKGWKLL
HCV NS5A protein (Q99IB8, residues 1977-2442): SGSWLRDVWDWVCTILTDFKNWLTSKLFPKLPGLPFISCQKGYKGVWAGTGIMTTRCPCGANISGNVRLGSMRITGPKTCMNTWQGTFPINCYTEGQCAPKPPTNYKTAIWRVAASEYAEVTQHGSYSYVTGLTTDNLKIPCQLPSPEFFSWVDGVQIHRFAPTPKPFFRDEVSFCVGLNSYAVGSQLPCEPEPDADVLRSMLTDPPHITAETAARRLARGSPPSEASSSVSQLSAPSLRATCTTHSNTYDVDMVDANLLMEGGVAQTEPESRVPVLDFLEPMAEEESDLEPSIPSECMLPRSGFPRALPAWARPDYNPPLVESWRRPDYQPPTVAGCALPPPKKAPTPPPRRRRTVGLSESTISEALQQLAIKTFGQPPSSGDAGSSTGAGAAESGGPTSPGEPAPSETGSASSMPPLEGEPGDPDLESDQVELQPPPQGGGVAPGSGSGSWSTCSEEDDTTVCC

Assay [1] deals with HCV E2 glycoprotein (JFH1) (hepatitis C virus, strain JFH1) (UniProt Q99IB8). Kind of assay: co-IP; lysates of 1 million electroporated Huh7.5 cells (72h; parental or p7 ATMI mutant virus, alone or with wild-type p7); 50 mM Tris-Cl pH 7.5, 150 mM NaCl, 1% Nonidet P-40, 1% sodium deoxycholate, 0.1% SDS; AR3A antibody against E2 overnight at 4°C, protein A/G agarose beads; quantitative western blot. Background: In western blotting, separated proteins are transferred to a membrane and probed.

Assay [2] concerns the target HCV NS2 protein (JFH1) (hepatitis C virus, strain JFH1) (UniProt Q99IB8). As to the kind of experiment: co-IP; cells expressing parental virus (or mutant virus with wild-type p7); 1 million electroporated Huh7.5 cells cross-linked with 1 mM DSP 30 min at room temperature; lysis in 50 mM Tris pH 7.4, 150 mM NaCl, 1 mM EDTA, 0.5% n-dodecyl-β-maltoside; rabbit NS2 antibody, protein A/G agarose beads; quantitative western blot.

For assay [3] the target is unchanged. As to the kind of experiment: co-IP; lysates of 1 million electroporated Huh7.5 cells (72h; parental or p7 ATMI mutant virus, alone or with wild-type p7); 50 mM Tris-Cl pH 7.5, 150 mM NaCl, 1% Nonidet P-40, 1% sodium deoxycholate, 0.1% SDS; rabbit NS2 antibody overnight at 4°C, protein A/G agarose beads; quantitative western blot.

No constants are given. Whether binding was seen depends on the method and setting. Binding seen in cells or lysates may run through a third protein. Some entries that bind do so weakly or less than the wild type.

For the substance “HCV NS2 protein (JFH1) (from UniProt Q99IB8 814-1030)”, the binding entry in assay [1] is “binds”.

With “HCV NS5A protein (from UniProt Q99IB8 1977-2442)”, in assay [2], the binding result is given as “binds”.

As for “HCV E2 glycoprotein (JFH1) (from UniProt Q99IB8 384-750)”, in assay [3], the binding result is reported as “binds”.
